# Over roughly 33,000 sequences, “E-score (-0.5 to 0.5)” has its median near -0.016; the highest 2% begin near 0.3. Some of the results follow.
# Target: T1, Yer184c (UniProt P39961)
# T1 sequence: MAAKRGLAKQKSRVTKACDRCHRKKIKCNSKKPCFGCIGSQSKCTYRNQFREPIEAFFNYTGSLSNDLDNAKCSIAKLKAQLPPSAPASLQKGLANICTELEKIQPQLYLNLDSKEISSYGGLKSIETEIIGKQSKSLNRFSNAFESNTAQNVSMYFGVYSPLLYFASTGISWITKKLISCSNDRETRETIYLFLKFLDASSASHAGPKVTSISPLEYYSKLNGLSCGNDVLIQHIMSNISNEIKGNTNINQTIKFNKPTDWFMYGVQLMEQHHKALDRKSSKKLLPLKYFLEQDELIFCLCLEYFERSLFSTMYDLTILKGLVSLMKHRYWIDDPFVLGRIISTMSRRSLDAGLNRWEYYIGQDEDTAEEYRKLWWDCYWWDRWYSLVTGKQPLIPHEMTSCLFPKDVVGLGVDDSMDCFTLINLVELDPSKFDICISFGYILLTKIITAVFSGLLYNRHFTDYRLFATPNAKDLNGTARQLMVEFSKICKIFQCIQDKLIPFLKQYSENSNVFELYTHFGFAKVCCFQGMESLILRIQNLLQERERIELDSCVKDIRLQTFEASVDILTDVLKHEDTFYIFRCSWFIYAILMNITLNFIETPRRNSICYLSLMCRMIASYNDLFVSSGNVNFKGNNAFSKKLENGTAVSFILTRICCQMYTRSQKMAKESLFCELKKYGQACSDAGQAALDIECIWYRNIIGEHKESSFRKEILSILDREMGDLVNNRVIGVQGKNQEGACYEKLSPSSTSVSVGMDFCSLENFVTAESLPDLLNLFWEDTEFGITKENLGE
# Assay: PBM E-score (8-mer binding enrichment) (E-score (-0.5 to 0.5)); higher = stronger / more preferred TF binding
# Details: protein concentration: 100 nM; construct: GST-full length
# Procedure, shortened: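 Full-length yeast transcription factors or their DNA-binding domains, GST-tagged and expressed with PURExpress, were applied at about 100-200 nM to universal all-10-mer Agilent arrays. These arrays had been made double-stranded by primer extension on fresh or once-stripped slides. Detection used fluorescent anti-GST, normalisation used masliner, and E-scores for ungapped eight-base words pooled with reverse complements came from the Universal PBM Analysis Suite.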
row,Sequence,PBM E-score
1,ACTACCAT,-0.106
2,AAGCTTAT,0.134
3,AACAACAC,0.122
4,AAGAGACT,0.0216
5,CCATTCGG,0.124
6,CTCGGTAA,0.256
7,AGATATCT,0.0747
8,ACCGTTAA,0.0476
9,GAGTTTGA,0.0131
10,ACGGAAAC,0.306
11,ACCTGGCC,-0.0503
12,CATATACG,0.0731
13,ATTTATCG,0.103
14,CGAGTGCC,-0.0795
15,AACAAGGA,0.113
16,CCTGGGCG,-0.191
17,GGAGCTCC,-0.106
18,GGTCGGCA,0.112
19,AAGAGGCT,-0.281
20,ACATCTTC,0.122
21,GATCGCGC,0.024
22,TCCCTAGA,0.079
23,CGTTCATA,-0.0483
24,CAACCTGA,-0.12
25,CACGATAA,0.278

row,Sequence,PBM E-score
1,CATGCCGC,0.181
2,ATACAACC,-0.00525
3,ACCGATGA,0.0642
4,CCCATTCA,-0.147
5,ACTTGAAA,0.107
6,ATGGCCGC,-0.008
7,AGGTTGTG,-0.0954
8,CACGTAGA,-0.153
9,CGTTTGGC,-0.0155
10,GAACCCCA,-0.184
11,CGACTAAC,0.168
12,GCATACTA,-0.0368
13,CCTACCAG,-0.314
14,CCTAGCTA,-0.344
15,CCGGGTCA,0.173
16,CAGAAAGA,0.0767
17,CACATTTA,-0.133
18,TGAAATCA,0.212
19,GCCCTCTA,-0.243
20,AGCATAAT,0.117
21,AAAACATG,0.021
22,CAGTTACA,0.0126
23,ACGCTCAG,-0.0976
24,GCAGGGCA,-0.0295
25,CTCTCGAC,-0.202

row,Sequence,PBM E-score
1,AGCTGATC,0.103
2,GCGATTCA,-0.0996
3,CGGTACAG,0.101
4,CCGATCTC,0.135
5,AAGGACCT,-0.017
6,CGGTTAAG,0.269
7,AGTGAATC,0.00528
8,GCAAGAGC,-0.114
9,CACATCCG,0.282
10,GAATCCCC,-0.148
11,GCCAGTCA,-0.181
12,ACTCAGTC,-0.152
13,CGATGACG,-0.142
14,ATCATCGA,0.0277
15,ATAGAACG,0.184
16,TACGCAAA,0.0579
17,AGTCGAGA,-0.00587
18,TAGTGGCA,-0.174
19,AAAGGCAG,0.09
20,CAACGATC,-0.0251
21,TCAACGGA,0.315
22,CGACGGGA,0.044
23,AGTAGTAA,0.137
24,AGATATCG,-0.143
25,AGGGACCG,-0.165

# Exported tab-delimited: part of the list above
row	Sequence	PBM E-score
7	AGGTTGTG	-0.0954
8	CACGTAGA	-0.153
9	CGTTTGGC	-0.0155
11	CGACTAAC	0.168
12	GCATACTA	-0.0368
13	CCTACCAG	-0.314
14	CCTAGCTA	-0.344
15	CCGGGTCA	0.173
16	CAGAAAGA	0.0767
17	CACATTTA	-0.133
18	TGAAATCA	0.212
19	GCCCTCTA	-0.243
20	AGCATAAT	0.117
21	AAAACATG	0.021
22	CAGTTACA	0.0126
24	GCAGGGCA	-0.0295
25	CTCTCGAC	-0.202
1	AGCTGATC	0.103
3	CGGTACAG	0.101
4	CCGATCTC	0.135
5	AAGGACCT	-0.017
6	CGGTTAAG	0.269
7	AGTGAATC	0.00528
8	GCAAGAGC	-0.114
9	CACATCCG	0.282
10	GAATCCCC	-0.148
11	GCCAGTCA	-0.181
12	ACTCAGTC	-0.152
13	CGATGACG	-0.142
14	ATCATCGA	0.0277
15	ATAGAACG	0.184
16	TACGCAAA	0.0579
17	AGTCGAGA	-0.00587
18	TAGTGGCA	-0.174
19	AAAGGCAG	0.09
20	CAACGATC	-0.0251
21	TCAACGGA	0.315
22	CGACGGGA	0.044
23	AGTAGTAA	0.137
24	AGATATCG	-0.143
25	AGGGACCG	-0.165

# (continued)

row,Sequence,PBM E-score
1,CTCTTGAA,-0.0697
2,CACTGTGA,-0.0529
3,AATTAGAC,0.154
4,ATGACTAG,-0.24
5,ATTGGTCA,-0.159
6,AGGAGCGA,-0.0501
7,ATCCGGCA,0.296
8,GCCTGGTA,-0.137
9,ACCACACG,-0.164
10,CATGGAGG,-0.216
11,CTAGCGCC,0.00613
12,GGTCTAAC,-0.0821
13,GCCGAGAA,0.368
14,AGTTTCTA,0.0648
15,CTTTCAGC,0.0492
16,TCGATTAA,0.148
17,AGTGCGCC,-0.0283
18,CGGCTATA,0.282
19,AACCCCTT,-0.0656
20,CTCCAAAA,-0.13
21,CAAGCACC,-0.355
22,CTTACCTA,-0.0506
23,GACTCGAC,-0.0811
24,ATTTGGTC,0.105
25,ACATAACC,-0.0194

row,Sequence,PBM E-score
1,ACGCATCC,-0.142
2,CCTTTTGA,0.0921
3,CAGCGTGG,-0.18
4,CACTACCA,-0.0681
5,AAGTGTGC,0.0256
6,GCTGTTAC,-0.0967
7,AACCAACT,-0.0133
8,GTAGAGAC,-0.161
9,GATTAGAA,0.0453
10,CTTCAGAC,-0.0721
11,CTATGTTA,0.0907
12,CCGTTTAC,0.241
13,CATGTACA,-0.117
14,CACGGCTC,0.123
15,GCGTACAA,-0.0543
16,ACTATGCG,-0.0457
17,CTCGCATC,0.0308
18,ATGACCTC,-0.205
19,AATGGTCT,-0.067
20,AGCATGAA,-0.132
21,ACTCAGCG,-0.0907
22,GGGCAAGA,0.106
23,GAGTAGGA,-0.143
24,CAACTAGA,0.025
25,AAGATATC,0.001

row,Sequence,PBM E-score
1,CTATTTGC,-0.142
2,CCTCGTTA,-0.0533
3,GCGGCTTA,0.025
4,GTCAAATA,0.0627
5,CGCACTTC,-0.0608
6,AAATTACA,0.185
7,CTTATATA,0.236
8,AGGGGAAA,-0.12
9,AACTGCGC,-0.0695
10,CCGTGACG,0.0625
11,AATTGGCG,0.0309
12,GATGATGA,0.01
13,GTAGCCAC,-0.197
14,AAGATTTG,0.0837
15,CAACGTCC,-0.146
16,AAGATTGT,0.0121
17,ATTACTCC,0.19
18,ATCAGGCG,-0.0829
19,AACCCTTG,-0.212
20,ATAACCGC,0.136
21,AATGCACA,-0.0124
22,AGCTAATA,0.0275
23,CATCGGAA,0.278
24,CATAAACA,0.162
25,ACAGGTCT,-0.135

row,Sequence,PBM E-score
1,GTGGAAAC,0.0343
2,CTAGGTTA,0.0792
3,GAGTACAC,-0.0358
4,CGTTTAGC,0.0556
5,AAATTGAG,-0.0886
6,ATTAGCGG,-0.00338
7,CTAGACTA,-0.13
8,CTAGGGGC,-0.361
9,CTTAAACA,0.121
10,GCCAGTAC,-0.109
11,GACTGGAC,-0.141
12,ATCGAGGG,-0.0814
13,ACTACTGG,-0.297
14,CTGTCAGC,-0.0746
15,CGCAACCC,-0.0396
16,CGAATGCC,-0.121
17,CCTCATCG,-0.0318
18,CTTTAGTC,-0.0848
19,ATGCCGCG,0.217
20,GAGGTAGA,-0.0651
21,GACTGGCC,-0.138
22,CCACGTGC,-0.146
23,GCATCAAA,0.155
24,AAGACTAC,-0.131
25,ATAGACTA,-0.0358

row,Sequence,PBM E-score
1,CCCACTAC,-0.0137
2,CATCTACA,-0.0751
3,AAGCAAGT,-0.0405
4,ATCCAAGC,-0.319
5,AACACGGG,-0.0313
6,GGGTCATA,-0.132
7,CCGTAAGC,0.00668
8,ACAAATCC,0.0981
9,GTGGTCGA,-0.337
10,AGACGCAC,-0.0804
11,GGCGGCTA,0.0873
12,CCTCGCCA,-0.343
13,AGATCCTA,-0.0936
14,ACCCACGC,-0.0602
15,CACCTTGA,-0.151
16,TTCGAGAA,-0.0185
17,CCACGTGG,-0.395
18,CAGCCAAA,0.116
19,CGCTTTCC,-0.0265
20,AAGTGGTG,-0.141
21,CCGAGTCG,0.00789
22,TAACGGCA,0.129
23,AACCTGCG,-0.0713
24,ACTCTTAA,-0.0784
25,ACTCATGC,-0.227

row,Sequence,PBM E-score
1,ACACTCAC,0.137
2,CGTGCGTC,0.0693
3,CATTCACC,0.127
4,GGCAGTCA,0.0622
5,CAAGGCTG,-0.28
6,GGTAACTA,0.186
7,CGGCCGGC,0.42
8,AACGTACA,-0.0551
9,CCTAAAAG,-0.278
10,CAGGAAAG,-0.104
11,ACGCGTGA,0.164
12,ACTGTGGC,-0.254
13,AGCTGTCA,-0.0639
14,AACGGCTC,0.215
15,CGCCTTAG,-0.117
16,CTCCACTC,-0.262
17,AACGCCCA,-0.119
18,CGTTCGGA,0.342
19,CACAGGGA,-0.2

# Source: the supplement of paper PMC3334620
